Experimental data from the supplement of paper PMC12819154, “High-throughput peptide-centric local stability assay extends protein–ligand identification to membrane proteins, tissues and bacteria” (Nature Structural & Molecular Biology, 2025).
The list shows a part of the results. Small differences around the control level are noise.

The chains behind the UniProt entries cited, without tags or fusion partners. Where a name states a change or a piece, a line headed by the entry shows the natural chain unless it says otherwise.
UniProt Q96T49: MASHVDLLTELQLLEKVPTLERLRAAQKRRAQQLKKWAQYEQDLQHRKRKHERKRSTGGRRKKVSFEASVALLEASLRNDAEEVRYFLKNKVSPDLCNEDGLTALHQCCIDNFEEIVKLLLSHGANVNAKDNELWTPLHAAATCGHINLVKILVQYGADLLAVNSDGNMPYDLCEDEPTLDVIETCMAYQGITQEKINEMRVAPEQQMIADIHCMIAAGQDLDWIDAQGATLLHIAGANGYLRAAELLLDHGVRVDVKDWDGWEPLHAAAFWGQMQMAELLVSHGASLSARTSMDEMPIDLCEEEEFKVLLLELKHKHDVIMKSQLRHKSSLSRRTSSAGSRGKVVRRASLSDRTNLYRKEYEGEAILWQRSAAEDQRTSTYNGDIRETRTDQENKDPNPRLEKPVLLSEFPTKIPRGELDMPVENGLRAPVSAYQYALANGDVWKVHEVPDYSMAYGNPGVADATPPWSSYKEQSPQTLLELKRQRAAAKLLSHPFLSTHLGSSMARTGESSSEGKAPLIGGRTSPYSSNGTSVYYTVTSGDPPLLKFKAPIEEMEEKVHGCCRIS
UniProt Q99608: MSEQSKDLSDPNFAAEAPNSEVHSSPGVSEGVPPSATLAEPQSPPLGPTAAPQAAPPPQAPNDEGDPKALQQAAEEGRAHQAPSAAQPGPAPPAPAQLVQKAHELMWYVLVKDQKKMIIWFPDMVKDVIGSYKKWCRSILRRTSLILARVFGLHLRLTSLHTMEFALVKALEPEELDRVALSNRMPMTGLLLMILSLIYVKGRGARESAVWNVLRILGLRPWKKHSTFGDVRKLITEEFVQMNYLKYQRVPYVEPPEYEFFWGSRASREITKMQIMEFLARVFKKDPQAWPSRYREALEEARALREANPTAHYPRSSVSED
UniProt Q9BQI0: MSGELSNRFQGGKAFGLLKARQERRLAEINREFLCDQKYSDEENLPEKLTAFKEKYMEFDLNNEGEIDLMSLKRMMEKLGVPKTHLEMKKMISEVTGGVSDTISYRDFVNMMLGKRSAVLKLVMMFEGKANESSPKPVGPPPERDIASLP
UniProt Q9BPX5, whole entry: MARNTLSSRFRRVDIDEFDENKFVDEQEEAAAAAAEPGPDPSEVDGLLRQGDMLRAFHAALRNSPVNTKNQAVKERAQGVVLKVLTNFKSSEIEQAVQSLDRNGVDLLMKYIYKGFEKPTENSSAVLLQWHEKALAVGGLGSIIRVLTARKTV
UniProt Q96S90: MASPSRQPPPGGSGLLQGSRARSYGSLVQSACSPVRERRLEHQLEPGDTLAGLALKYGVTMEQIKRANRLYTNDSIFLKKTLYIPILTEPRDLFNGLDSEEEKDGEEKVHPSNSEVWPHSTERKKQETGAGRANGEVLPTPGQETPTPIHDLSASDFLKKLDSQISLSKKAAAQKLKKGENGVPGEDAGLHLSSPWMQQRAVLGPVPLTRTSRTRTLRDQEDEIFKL
UniProt Q99828: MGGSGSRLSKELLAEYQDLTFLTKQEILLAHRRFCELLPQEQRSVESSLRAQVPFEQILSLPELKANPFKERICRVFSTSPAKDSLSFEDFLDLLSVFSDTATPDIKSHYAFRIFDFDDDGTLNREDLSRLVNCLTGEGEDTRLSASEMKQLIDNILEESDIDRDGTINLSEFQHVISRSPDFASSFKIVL
UniProt Q9BUL8: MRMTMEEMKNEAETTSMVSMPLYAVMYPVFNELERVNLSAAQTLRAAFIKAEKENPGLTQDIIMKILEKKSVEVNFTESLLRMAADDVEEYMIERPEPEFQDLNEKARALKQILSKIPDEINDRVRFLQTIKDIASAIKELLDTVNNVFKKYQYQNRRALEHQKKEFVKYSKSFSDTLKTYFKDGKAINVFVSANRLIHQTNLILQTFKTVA
UniProt Q9BRG1: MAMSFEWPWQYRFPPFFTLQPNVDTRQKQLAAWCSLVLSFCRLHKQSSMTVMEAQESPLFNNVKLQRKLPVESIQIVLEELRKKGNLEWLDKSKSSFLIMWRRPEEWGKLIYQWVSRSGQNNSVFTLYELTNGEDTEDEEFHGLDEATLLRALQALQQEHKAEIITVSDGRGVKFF
UniProt Q96S59, whole entry: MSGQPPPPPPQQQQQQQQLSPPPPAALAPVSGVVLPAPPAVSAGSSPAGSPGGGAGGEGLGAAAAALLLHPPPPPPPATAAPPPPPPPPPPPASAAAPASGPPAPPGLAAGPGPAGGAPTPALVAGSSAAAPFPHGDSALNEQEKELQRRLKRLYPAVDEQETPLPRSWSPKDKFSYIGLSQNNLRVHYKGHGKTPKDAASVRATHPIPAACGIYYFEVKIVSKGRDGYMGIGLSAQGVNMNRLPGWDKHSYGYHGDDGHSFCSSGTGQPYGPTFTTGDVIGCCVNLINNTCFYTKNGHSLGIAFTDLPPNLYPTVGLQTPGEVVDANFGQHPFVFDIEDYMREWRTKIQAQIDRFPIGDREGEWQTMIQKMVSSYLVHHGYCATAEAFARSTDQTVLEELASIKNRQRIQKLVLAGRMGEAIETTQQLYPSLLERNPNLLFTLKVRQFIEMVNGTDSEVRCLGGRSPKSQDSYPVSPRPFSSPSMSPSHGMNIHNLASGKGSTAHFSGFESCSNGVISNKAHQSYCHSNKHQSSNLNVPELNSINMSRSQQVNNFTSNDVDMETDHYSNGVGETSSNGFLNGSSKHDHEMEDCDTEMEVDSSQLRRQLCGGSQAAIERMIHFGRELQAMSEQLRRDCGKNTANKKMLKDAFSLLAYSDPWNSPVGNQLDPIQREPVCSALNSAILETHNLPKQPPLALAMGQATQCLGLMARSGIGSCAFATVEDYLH
UniProt Q9BT43: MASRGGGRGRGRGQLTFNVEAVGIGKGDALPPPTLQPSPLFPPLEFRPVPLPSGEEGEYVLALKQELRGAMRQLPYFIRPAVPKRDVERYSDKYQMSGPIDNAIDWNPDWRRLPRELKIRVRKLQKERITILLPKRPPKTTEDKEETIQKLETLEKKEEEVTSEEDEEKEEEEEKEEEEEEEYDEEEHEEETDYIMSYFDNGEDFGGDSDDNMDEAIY
UniProt Q96TC7: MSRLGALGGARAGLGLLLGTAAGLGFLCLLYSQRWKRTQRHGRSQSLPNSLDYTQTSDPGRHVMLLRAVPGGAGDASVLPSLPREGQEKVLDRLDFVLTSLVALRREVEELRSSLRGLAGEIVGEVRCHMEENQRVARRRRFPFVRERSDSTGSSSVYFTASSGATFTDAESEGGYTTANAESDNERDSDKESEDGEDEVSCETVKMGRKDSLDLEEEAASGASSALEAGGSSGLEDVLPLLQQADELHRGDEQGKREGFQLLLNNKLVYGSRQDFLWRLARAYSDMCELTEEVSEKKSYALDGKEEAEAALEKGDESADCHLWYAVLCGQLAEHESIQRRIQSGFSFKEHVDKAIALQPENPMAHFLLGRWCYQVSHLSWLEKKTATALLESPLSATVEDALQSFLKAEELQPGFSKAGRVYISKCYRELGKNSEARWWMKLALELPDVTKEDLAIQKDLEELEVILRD
UniProt Q99653: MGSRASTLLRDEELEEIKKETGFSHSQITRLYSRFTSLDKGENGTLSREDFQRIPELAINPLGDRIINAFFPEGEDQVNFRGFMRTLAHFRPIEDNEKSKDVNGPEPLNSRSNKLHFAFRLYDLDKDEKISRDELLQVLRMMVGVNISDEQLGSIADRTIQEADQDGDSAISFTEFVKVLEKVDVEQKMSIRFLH
UniProt Q9BU89: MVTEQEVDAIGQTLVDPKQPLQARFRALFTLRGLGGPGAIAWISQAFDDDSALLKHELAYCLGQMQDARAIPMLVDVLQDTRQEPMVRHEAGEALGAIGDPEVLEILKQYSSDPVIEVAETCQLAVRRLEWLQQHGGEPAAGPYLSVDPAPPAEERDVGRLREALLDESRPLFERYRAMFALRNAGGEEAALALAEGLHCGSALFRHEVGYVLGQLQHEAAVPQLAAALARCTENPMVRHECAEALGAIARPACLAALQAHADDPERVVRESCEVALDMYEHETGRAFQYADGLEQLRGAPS
UniProt Q96SW2: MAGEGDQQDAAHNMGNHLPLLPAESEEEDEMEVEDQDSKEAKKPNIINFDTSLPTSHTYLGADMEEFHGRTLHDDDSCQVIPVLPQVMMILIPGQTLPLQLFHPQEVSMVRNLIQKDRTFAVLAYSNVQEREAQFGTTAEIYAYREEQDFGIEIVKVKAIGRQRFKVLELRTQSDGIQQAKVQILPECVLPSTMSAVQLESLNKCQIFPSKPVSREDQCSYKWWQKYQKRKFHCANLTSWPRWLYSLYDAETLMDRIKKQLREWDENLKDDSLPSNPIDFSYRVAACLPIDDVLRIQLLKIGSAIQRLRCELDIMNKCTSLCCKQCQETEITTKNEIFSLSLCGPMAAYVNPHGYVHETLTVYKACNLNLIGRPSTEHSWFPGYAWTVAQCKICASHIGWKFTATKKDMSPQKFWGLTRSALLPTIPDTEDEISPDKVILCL
UniProt Q9BUP0: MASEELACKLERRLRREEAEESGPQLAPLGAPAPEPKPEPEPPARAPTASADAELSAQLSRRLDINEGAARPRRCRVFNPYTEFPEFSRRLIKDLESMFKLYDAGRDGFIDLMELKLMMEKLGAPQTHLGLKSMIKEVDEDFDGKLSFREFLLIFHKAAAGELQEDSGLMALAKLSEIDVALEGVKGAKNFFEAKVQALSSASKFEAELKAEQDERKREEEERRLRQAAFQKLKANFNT
UniProt Q99447: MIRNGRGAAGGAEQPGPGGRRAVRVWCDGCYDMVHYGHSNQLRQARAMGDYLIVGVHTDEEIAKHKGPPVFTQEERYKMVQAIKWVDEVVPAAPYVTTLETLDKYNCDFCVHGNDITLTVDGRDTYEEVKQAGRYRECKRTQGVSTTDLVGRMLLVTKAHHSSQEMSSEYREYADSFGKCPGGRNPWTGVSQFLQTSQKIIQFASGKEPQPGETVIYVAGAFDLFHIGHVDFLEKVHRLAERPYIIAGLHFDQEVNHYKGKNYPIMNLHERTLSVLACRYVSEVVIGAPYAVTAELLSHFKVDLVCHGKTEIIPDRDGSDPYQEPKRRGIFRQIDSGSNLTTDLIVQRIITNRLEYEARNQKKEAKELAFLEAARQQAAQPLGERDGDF
UniProt Q9BUE6: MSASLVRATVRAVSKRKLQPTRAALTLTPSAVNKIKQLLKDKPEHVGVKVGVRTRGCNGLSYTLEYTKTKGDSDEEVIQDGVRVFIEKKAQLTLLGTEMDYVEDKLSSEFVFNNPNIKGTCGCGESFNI
UniProt Q99759: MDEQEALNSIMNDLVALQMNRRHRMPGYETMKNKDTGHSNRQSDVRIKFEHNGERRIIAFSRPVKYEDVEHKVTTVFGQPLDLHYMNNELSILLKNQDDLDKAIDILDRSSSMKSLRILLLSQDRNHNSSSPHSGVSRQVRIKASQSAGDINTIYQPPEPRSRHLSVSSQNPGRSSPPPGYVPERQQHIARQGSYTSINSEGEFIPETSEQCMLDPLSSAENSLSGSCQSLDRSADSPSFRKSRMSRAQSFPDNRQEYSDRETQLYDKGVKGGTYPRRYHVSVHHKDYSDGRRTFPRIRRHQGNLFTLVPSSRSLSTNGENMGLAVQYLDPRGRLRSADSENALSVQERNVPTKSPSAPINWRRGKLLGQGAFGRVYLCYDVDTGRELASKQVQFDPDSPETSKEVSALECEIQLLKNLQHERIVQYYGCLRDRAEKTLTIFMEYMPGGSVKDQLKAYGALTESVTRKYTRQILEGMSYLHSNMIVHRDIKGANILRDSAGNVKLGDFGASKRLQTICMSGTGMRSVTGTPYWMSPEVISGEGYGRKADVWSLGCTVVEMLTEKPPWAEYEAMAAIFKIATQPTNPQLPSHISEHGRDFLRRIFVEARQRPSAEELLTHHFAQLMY
UniProt Q9BRH9: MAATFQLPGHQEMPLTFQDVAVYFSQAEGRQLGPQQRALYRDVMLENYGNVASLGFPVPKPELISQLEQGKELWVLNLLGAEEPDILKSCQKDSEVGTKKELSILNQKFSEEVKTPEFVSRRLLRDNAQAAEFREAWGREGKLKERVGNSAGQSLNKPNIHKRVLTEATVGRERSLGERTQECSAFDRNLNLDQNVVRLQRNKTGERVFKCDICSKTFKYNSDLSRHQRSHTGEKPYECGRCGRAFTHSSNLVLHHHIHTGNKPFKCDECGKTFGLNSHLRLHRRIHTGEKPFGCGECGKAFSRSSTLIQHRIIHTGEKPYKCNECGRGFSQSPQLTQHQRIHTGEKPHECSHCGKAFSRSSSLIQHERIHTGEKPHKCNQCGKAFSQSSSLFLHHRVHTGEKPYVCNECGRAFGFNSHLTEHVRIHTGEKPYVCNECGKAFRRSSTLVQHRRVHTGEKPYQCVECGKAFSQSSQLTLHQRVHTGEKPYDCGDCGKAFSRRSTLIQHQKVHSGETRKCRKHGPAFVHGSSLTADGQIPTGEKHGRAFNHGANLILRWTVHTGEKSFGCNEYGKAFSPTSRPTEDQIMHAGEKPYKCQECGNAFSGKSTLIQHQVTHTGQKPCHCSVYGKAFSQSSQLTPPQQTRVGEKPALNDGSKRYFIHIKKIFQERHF
UniProt Q9BSD7: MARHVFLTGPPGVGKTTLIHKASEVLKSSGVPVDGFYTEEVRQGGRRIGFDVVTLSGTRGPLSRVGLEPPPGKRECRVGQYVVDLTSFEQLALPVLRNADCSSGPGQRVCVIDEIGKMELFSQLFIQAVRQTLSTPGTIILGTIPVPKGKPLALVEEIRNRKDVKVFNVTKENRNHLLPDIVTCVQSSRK

The targets below were run with Cc1nc(Nc2ncc(C(=O)Nc3c(C)cccc3Cl)s2)cc(N2CCN(CCO)CC2)n1 [dasatinib] (assay: log2 fold change of tryptic peptide abundance, ligand vs vehicle (limited proteolysis) (log2 ratio); higher = more trypsin-susceptible (destabilized)). Conditions: ligand concentration: 5 uM; sample: K562 cleared lysate.
“PCGF1 (peptide sequence: NQLQSVYK, peptide start residue: 17) (UniProt Q9BSM1)” showed a log2 fold change of 0.0658. Work on “UniProt Q96T49 (peptide sequence: LEKPVLLSEFPTKIPR, peptide start residue: 402)” yielded a log2 fold change of -0.309. For “BCL7B (peptide sequence: WVTVGDTSLR, peptide start residue: 35) (UniProt Q9BQE9)”, the log2 fold change was 0.0166. Work on “UniProt Q99612 (peptide sequence: SDHLALHMK, peptide start residue: 351)” yielded a log2 fold change of 0.24. Target “RHOXF2 (peptide sequence: EQFPSEFLR, peptide start residue: 156) (UniProt Q9BQY4)” has a log2 fold change of -0.169. Work on “UniProt Q99608 (peptide sequence: ALQQAAEEGR, peptide start residue: 69)” yielded a log2 fold change of 0.34. “AIF1L (peptide sequence: LVMMFEGK, peptide start residue: 122) (UniProt Q9BQI0)” was tested, and the log2 fold change was 0.0842. For “ARPC5L (peptide sequence: GFEKPTENSSAVLLQWHEK, peptide start residue: 115) (UniProt Q9BPX5)”, the log2 fold change was -0.274. In the case of “LYSMD1 (peptide sequence: RLEHQLEPGDTLAGLALK, peptide start residue: 39) (UniProt Q96S90)”, the log2 fold change was -0.101. In the case of “RBM42 (peptide sequence: YVGSRPIK, peptide start residue: 446) (UniProt Q9BTD8)”, the log2 fold change was -0.244. With “CIB1 (peptide sequence: FCELLPQEQR, peptide start residue: 34) (UniProt Q99828)” the log2 fold change was 0.249. “PDCD10 (peptide sequence: LIHQTNLILQTFK, peptide start residue: 197) (UniProt Q9BUL8)” showed a log2 fold change of -0.0869. In the case of “VPS25 (peptide sequence: RPEEWGK, peptide start residue: 103) (UniProt Q9BRG1)”, the log2 fold change was -0.533. “RANBP9 (peptide sequence: EGEWQTMIQK, peptide start residue: 362) (UniProt Q96S59)” showed a log2 fold change of -0.284. Work on “TRIM56 (peptide sequence: VEKEALAR, peptide start residue: 236) (UniProt Q9BRZ2)” yielded a log2 fold change of -0.5. Target “UniProt Q9BU76 (peptide sequence: AEDQTESSCESHRK, peptide start residue: 171)” has a log2 fold change of 0.13. In the case of “MYCBP (peptide sequence: LAQYEPPQEEKR, peptide start residue: 90) (UniProt Q99417)”, the log2 fold change was 0.701. For “C12orf57 (peptide sequence: DNACNDMGK, peptide start residue: 41) (UniProt Q99622)”, the log2 fold change was 0.0975. In the case of “UniProt Q9BU61 (peptide sequence: LSPADDELYQR, peptide start residue: 34)”, the log2 fold change was -0.0105. Work on “AGPAT1 (peptide sequence: GGGDYLKKPGGGG, peptide start residue: 271) (UniProt Q99943)” yielded a log2 fold change of -0.0781. Work on “POLR3GL (peptide sequence: QLPYFIRPAVPK, peptide start residue: 73) (UniProt Q9BT43)” yielded a log2 fold change of -0.235. For “UniProt Q96TC7 (peptide sequence: WCYQVSHLSWLEKK, peptide start residue: 372)”, the log2 fold change was 0.155. With “UniProt Q99653 (peptide sequence: IPELAINPLGDR, peptide start residue: 54)” the log2 fold change was -0.521. Work on “RPP25 (peptide sequence: SLGEPAAGEGSAK, peptide start residue: 172) (UniProt Q9BUL9)” yielded a log2 fold change of 0.0443. Work on “DOHH (peptide sequence: VVRESCEVALDMYEHETGR, peptide start residue: 268) (UniProt Q9BU89)” yielded a log2 fold change of 0.492. Target “CRBN (peptide sequence: TQSDGIQQAK, peptide start residue: 172) (UniProt Q96SW2)” has a log2 fold change of -0.145. With “TMEM209 (peptide sequence: TLDTFLR, peptide start residue: 241) (UniProt Q96SK2)” the log2 fold change was -0.0901. With “CNPY3 (peptide sequence: ASPLTHSPPDEL, peptide start residue: 267) (UniProt Q9BT09)” the log2 fold change was -0.146. Work on “EFHD1 (peptide sequence: LGAPQTHLGLK, peptide start residue: 124) (UniProt Q9BUP0)” yielded a log2 fold change of -0.125. “PCYT2 (peptide sequence: EYADSFGK, peptide start residue: 172) (UniProt Q99447)” showed a log2 fold change of 0.112. With “ISCA1 (peptide sequence: TKGDSDEEVIQDGVR, peptide start residue: 69) (UniProt Q9BUE6)” the log2 fold change was 0.252. “ATF6B (peptide sequence: LSTEPSSEALGVGEVLHVK, peptide start residue: 107) (UniProt Q99941)” showed a log2 fold change of -0.247. Target “CORO1B (peptide sequence: HVFGQPVKNDQCYEDIR, peptide start residue: 14) (UniProt Q9BR76)” has a log2 fold change of -0.8. “UniProt Q99759 (peptide sequence: HLSVSSQNPGR, peptide start residue: 164)” gave a log2 fold change of 0.548. Target “PARK7 (peptide sequence: KGLIAAICAGPTALLAHEIGFGSK, peptide start residue: 99) (UniProt Q99497)” has a log2 fold change of 0.167. For “UniProt Q9BRH9 (peptide sequence: TQECSAFDR, peptide start residue: 180)”, the log2 fold change was 0.347. Work on “UniProt Q9BSD7 (peptide sequence: VGLEPPPGKRECR, peptide start residue: 65)” yielded a log2 fold change of -0.497.
